Measured values as given in article PMC10799366.
Results are given in words; binding and its absence hold for the method and conditions named. Binding seen in cells or lysates may run through a third protein. Some entries that bind do so weakly or less than the wild type.

Protein sequences, listed by entry. Tags and fused reporters are not part of them. Residues count along the entry.
UniProt P16070, residues 21-742: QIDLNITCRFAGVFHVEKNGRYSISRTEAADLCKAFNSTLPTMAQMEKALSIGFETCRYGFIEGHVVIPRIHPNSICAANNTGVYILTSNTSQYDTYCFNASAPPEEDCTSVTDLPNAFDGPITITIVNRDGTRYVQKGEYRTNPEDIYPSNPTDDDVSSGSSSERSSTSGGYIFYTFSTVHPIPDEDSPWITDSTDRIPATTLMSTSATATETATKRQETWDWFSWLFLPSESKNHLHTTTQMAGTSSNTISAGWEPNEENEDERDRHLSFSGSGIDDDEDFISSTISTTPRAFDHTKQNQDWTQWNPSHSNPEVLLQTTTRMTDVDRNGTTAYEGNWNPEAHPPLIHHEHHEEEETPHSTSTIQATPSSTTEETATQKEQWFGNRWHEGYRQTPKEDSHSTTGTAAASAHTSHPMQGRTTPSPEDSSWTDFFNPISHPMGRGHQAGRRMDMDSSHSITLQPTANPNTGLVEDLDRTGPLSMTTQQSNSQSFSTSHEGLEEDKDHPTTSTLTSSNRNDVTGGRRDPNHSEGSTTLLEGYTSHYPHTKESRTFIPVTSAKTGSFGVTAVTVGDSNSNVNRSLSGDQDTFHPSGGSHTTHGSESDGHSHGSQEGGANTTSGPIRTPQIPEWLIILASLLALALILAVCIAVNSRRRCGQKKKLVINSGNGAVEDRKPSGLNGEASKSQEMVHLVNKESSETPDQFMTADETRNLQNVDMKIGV
UniProt P26022, residues 18-381: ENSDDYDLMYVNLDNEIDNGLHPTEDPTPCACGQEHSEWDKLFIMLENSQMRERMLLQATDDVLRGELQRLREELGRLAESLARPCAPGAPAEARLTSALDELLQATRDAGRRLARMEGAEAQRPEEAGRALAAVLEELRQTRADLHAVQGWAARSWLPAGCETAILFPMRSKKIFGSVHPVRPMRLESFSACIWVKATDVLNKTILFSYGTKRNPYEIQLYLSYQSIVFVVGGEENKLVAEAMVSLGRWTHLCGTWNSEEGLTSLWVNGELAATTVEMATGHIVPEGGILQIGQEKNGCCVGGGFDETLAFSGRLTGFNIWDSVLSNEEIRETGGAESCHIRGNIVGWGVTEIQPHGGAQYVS

Target: CD44 on THP-1 macrophages (human (endogenous in THP-1)) (UniProt P16070)
Test: proximity ligation; in situ proximity ligation assay (PLA) on THP-1 macrophages, with or without the anti-PTX3 antibody WHC-001; only the binder purified

binding: binds
Substance: Recombinant human wild-type pentraxin 3 (PTX3) (from UniProt P26022 18-381) (ligand)
